According to patent US10590123B2, “Pesticidally active amide heterocyclic derivatives with sulphur containing substituents” (SYNGENTA PARTICIPATIONS AG, priority 2014, dated 2020):
Some entries share one result that the patent states for a list of compounds.

Tested on: Aedes aegypti (Yellow Fever Mosquito)
Assay: Example B10: Activity against Aedes aegypti, dry deposits in tissue culture plates
Assay type: in vivo
Conditions: application rate 200 ppm in ethanol; adult females; after 48 h and/or 24 h

How did the “control of Aedes aegypti” value turn out when CCS(=O)(=O)c1cc(-c2ccc(C#N)cn2)cnc1C(=O)N(C)c1nnc(C(F)(F)F)s1 [Compound P64, 5-(5-cyano-2-pyridyl)-3-ethylsulfonyl-N-methyl-N-[5-(trifluoromethyl)-1,3,4-thiadiazol-2-yl]pyridine-2-carboxamide] was run?
Its value is “at least 80%”.

How did the “control of Aedes aegypti” value turn out when CCS(=O)(=O)c1cc(-c2ncc(C#N)cn2)cnc1C(=O)N(C)c1nnc(C(F)(F)F)s1 [Compound P63] was run?
Its value is “at least 80%”.

With CCS(=O)(=O)c1cc(-c2cc(C(F)(F)F)ccn2)cnc1C(=O)N(C)c1nnc(C(F)(F)F)s1 [Compound P65] as the molecule, how does the “control of Aedes aegypti” value read?
The value was “at least 80%”.

With CCS(=O)(=O)c1cc(-c2ccc(Cl)cc2)cnc1C(=O)N(C)c1nnc(C(F)(F)C(F)(F)F)s1 [Compound P14] as the molecule, how does the “control of Aedes aegypti” value read?
Its value is “at least 80%”.

CCS(=O)(=O)c1cc(-c2ccc(C(F)(F)F)cc2)cnc1C(=O)N(C)c1nnc(C(F)(F)C(F)(F)F)s1 [Compound P11] was tested. Which “control of Aedes aegypti” value did it give?
The value was “at least 80%”.

How did the “control of Aedes aegypti” value turn out when CCS(=O)(=O)c1cc(C2(C#N)CC2)cnc1C(=O)N(C)c1nnc(C(F)(F)C(F)(F)F)s1 [Compound P20, 5-(1-cyanocyclopropyl)-3-ethylsulfonyl-N-methyl-N-[5-(1,1,2,2,2-pentafluoroethyl)-1,3,4-thiadiazol-2-yl]pyridine-2-carboxamide] was run?
The value was “at least 80%”.
